# Measurements taken from the supplement of paper PMC4604168 (melanoma cell lines).
# The list shows a part of the results. Repeats are few or missing, and single values can be far off.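 The apoptosis fraction was the count of cleaved-PARP antibody-stained nuclei relative to all DNA-stained nuclei, imaged in 1,536-well plates. Screening doses were set so most cells survived, and baseline and induced cleaved-PARP levels vary greatly across cell lines.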
# System: WM451Lu
# Experiment: cleaved PARP positive nuclei fraction relative to DMSO control; melanoma cells; higher = more apoptosis
# Settings: library dose: low library concentration; 72 h
row,Compound,cleaved PARP positive nuclei fraction [%]
1,"N.N.[Cl][Pt][Cl] [cisplatin] + COc1cc(Nc2ncc(F)c(Nc3ccc4c(n3)NC(=O)C(C)(C)O4)n2)cc(OC)c1OC [Tamatinib] (first compound 1.6 µM, partner dose 0.4 µM)",96.3
2,"N.N.[Cl][Pt][Cl] [cisplatin] + Nc1ncn([C@H]2C[C@H](O)[C@@H](CO)O2)c(=O)n1 [decitabine] (first compound 1.6 µM, partner dose 0.1 µM)",69.8
3,"CNC(=O)c1cc(Oc2ccc(NC(=O)Nc3ccc(Cl)c(C(F)(F)F)c3)cc2)ccn1 [sorafenib] + C[As](C)SC[C@H](NC(=O)CC[C@H](N)C(=O)O)C(=O)NCC(=O)O [Darinaparsin] (first compound 0.4 µM, partner dose 0.4 µM)",17.7
